Measurements as given in US20210116456A1.
These are yes or no findings as the source states them, for the method shown. Some results given as binding are weak or reduced against the parent protein; the word gives no strength. Each block holds one binder with its values, some of them ahead of it.

Target: T1, CDH17 (UniProt Q12864)
T1 sequence (looked up): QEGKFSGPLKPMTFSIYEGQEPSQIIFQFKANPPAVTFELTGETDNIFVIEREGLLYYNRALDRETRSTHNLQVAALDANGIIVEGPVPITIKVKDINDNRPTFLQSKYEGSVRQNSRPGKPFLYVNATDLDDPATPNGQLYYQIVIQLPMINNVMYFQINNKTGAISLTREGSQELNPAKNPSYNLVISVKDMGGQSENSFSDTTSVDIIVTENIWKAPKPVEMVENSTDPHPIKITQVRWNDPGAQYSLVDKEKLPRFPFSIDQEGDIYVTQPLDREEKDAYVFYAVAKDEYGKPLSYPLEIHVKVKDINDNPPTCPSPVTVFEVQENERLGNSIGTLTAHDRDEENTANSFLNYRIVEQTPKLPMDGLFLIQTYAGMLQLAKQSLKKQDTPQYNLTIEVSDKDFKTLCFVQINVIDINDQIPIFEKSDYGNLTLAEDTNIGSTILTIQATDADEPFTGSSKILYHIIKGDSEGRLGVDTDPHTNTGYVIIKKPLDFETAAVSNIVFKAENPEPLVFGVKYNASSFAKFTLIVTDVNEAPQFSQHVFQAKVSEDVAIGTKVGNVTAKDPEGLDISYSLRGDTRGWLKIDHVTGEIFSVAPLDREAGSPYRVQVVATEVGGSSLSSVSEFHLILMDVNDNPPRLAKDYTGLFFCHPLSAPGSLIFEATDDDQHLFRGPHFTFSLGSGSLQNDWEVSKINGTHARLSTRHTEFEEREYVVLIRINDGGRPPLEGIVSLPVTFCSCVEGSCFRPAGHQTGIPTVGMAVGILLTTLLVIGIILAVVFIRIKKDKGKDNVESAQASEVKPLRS
Test: capture ELISA, antibody immobilized on wells, CDH17 from cancer cell culture media and blood

binding: binds
B1: ARB101 (humanized Lic3, CDH17 capturing antibody) (antibody, V domains shown)
VH: QVQLQESGGGLVKPGGSLKLSCAASGFSFSDYYMYWVRQAPEKRLEWVASISFDGTYTYYTDRVKGRFTISRDNAKNNLYLQMSSLKSEDTAMYYCARDRPAWFPYWGQGTLVTVSA
VL: DIVLTQTPLSLTVSLGDQASISCRSSQSIVHSNGNTYLGWYLQRPGQSPKLLIYKVSNRFSGVPDRFSGSGSGTDFTLKISRVEAEDLGVYYCFQGSHVPLTFGAGTKLELKR

binding: binds
B2: ARB102 (humanized 10C12, CDH17 capturing antibody) (antibody, V domains shown)
VH: EVQLVESGGGLVQPGGSLRLSCAASGFTFSSYAMSWVRQTPGKGLEWVAVIDSNGGSTYYPDTVKDRFTISRDNSKNTLYLQMNSLRAEDTAVYYCSSYTNLGAYWGQGTLVTVSA
VL: DIQMTQSPSSLSASVGDRVTITCRASQDISGYLNWLQQKPGGAIKRLIYTTSTLDSGVPKRFSGSGSGTDFTLTISSLQSEDFATYYCLQYASSPFTFGGGTKVEIK

binding: binds
B3: 9C6 (CDH17 antibody, humanized sequences; D6) (antibody, V domains shown)
VH: QVQLVQSGAEVKKPGASVKVSCKVSGYTFTHYWMHWVRQRPGKGLEWMGEIDPFDSYTYYNQKFKGRVTMTVDTSSDTAYMELSSLRSEDTAVYYCARPLPGTGWYFDVWGQGTTVTVSS
VL: EIVLTQSPTTLSLSPGERATLSCSASSSISSTYLHWYQQKPGFPPRLLIYGTSNLASGIPACFSGSGSGTDFTLTISSLEAEDFAVYYCQQGSSLPFTFGQGTKLEIK
